Measurements reported in PubChem BioAssay AID1259405 (NCATS, 2018)
Purpose: 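Silenced genes that increase secreted GFP made by CHO cells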 (primary screen). System: Chinese hamster CHO-K1 ovary cells with stable secreted eGFP expression. Knock-down reagent: single siRNA against mouse genes, 0.8 pmol siRNA per well (2 µl of 400 nM stock). Time to read-out: 3 days. Detection: 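Percent of the per-plate non-targeting control median for intracellular GFP per well by laser scanning cytometry and for cell viability by ATP luminescence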. Direction: GFP, % of control: higher = more GFP per well, higher productivity; viability (ATP), % of control: higher = more viable cells (more ATP). Active means: 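Called active when intracellular GFP, relative to negative control, is at or above 120%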.
This is one part, drawn at random, of about 50,000 reagents tested. Over the whole deposit, about 4,000 (8%) got an active call. 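Mouse siRNA library applied to hamster cells; one well for each siRNA.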 Reagents against one gene are numbered here. No sequences are given here.

no.	target gene	reagent	GFP, % of control	viability (ATP), % of control	Outcome
1	Cep112 (GeneID 76380)	1	77	90.2	inactive
2	Cep112 (GeneID 76380)	2	106	91	inactive
3	Cep112 (GeneID 76380)	3	53.1	51.1	inactive
4	Wdfy1 (GeneID 69368)	1	85.3	80.6	inactive
5	Wdfy1 (GeneID 69368)	2	77.7	70.8	inactive
6	Wdfy1 (GeneID 69368)	3	52.7	53.9	inactive
7	Jkampl (GeneID 66740)	1	48.7	49.5	inactive
8	Jkampl (GeneID 66740)	2	58	31.4	inactive
9	Jkampl (GeneID 66740)	3	123	129	active
10	Or1o11 (GeneID 258457)	1	25.3	17.4	inactive
11	Or1o11 (GeneID 258457)	2	98.8	49.9	inactive
12	Or1o11 (GeneID 258457)	3	32.5	40.9	inactive
13	Kcnmb4 (GeneID 58802)	1	53.1	56.2	inactive
14	Kcnmb4 (GeneID 58802)	2	74.9	74.2	inactive
15	Kcnmb4 (GeneID 58802)	3	68.7	91.3	inactive
16	Mpv17l2 (GeneID 234384)	1	65.5	49.8	inactive
17	Mpv17l2 (GeneID 234384)	2	70.8	72	inactive
18	Mpv17l2 (GeneID 234384)	3	28.6	24.7	inactive
19	Ubap2 (GeneID 68926)	1	79	96.5	inactive
20	Ubap2 (GeneID 68926)	2	78.4	85.4	inactive
21	Ubap2 (GeneID 68926)	3	93.7	99.6	inactive
22	Ifna14 (GeneID 404549)	1	74.8	51.2	inactive
23	Ifna14 (GeneID 404549)	2	86.9	56.6	inactive
24	Ifna14 (GeneID 404549)	3	93.4	65.7	inactive
25	Entpd2 (GeneID 12496)	1	52.6	91.6	inactive
26	Entpd2 (GeneID 12496)	2	32.2	50.1	inactive
27	Entpd2 (GeneID 12496)	3	47.9	81.1	inactive
28	Gpbp1l1 (GeneID 77110)	1	38.4	34.8	inactive
29	Gpbp1l1 (GeneID 77110)	2	71.6	75.7	inactive
30	Gpbp1l1 (GeneID 77110)	3	91.9	101	inactive
31	Mycbpap (GeneID 104601)	1	42	57.7	inactive
32	Mycbpap (GeneID 104601)	2	41	65.5	inactive
33	Mycbpap (GeneID 104601)	3	61.4	59.4	inactive

14 neighbouring records already listed, for reference:
no.	target gene	reagent	GFP, % of control	viability (ATP), % of control	Outcome
10	Or1o11 (GeneID 258457)	1	25.3	17.4	inactive
11	Or1o11 (GeneID 258457)	2	98.8	49.9	inactive
12	Or1o11 (GeneID 258457)	3	32.5	40.9	inactive
13	Kcnmb4 (GeneID 58802)	1	53.1	56.2	inactive
14	Kcnmb4 (GeneID 58802)	2	74.9	74.2	inactive
15	Kcnmb4 (GeneID 58802)	3	68.7	91.3	inactive
16	Mpv17l2 (GeneID 234384)	1	65.5	49.8	inactive
17	Mpv17l2 (GeneID 234384)	2	70.8	72	inactive
18	Mpv17l2 (GeneID 234384)	3	28.6	24.7	inactive
19	Ubap2 (GeneID 68926)	1	79	96.5	inactive
20	Ubap2 (GeneID 68926)	2	78.4	85.4	inactive
21	Ubap2 (GeneID 68926)	3	93.7	99.6	inactive
22	Ifna14 (GeneID 404549)	1	74.8	51.2	inactive
23	Ifna14 (GeneID 404549)	2	86.9	56.6	inactive

Additional reagents:
no.	target gene	reagent	GFP, % of control	viability (ATP), % of control	Outcome
34	Marveld1 (GeneID 277010)	1	87.2	61	inactive
35	Marveld1 (GeneID 277010)	2	242	44.6	active
36	Marveld1 (GeneID 277010)	3	65.6	43.1	inactive
37	Rnf38 (GeneID 73469)	1	112	51.9	inactive
38	Rnf38 (GeneID 73469)	2	132	68.7	active
39	Rnf38 (GeneID 73469)	3	51.8	61.5	inactive
40	Ptpmt1 (GeneID 66461)	1	111	84.8	inactive
41	Ptpmt1 (GeneID 66461)	2	105	83.4	inactive
42	Ptpmt1 (GeneID 66461)	3	73.7	70.1	inactive
43	Tmem71 (GeneID 213068)	1	47.3	32.4	inactive
44	Tmem71 (GeneID 213068)	2	66.2	97.9	inactive
45	Tmem71 (GeneID 213068)	3	67.3	75.7	inactive
46	Or6c35 (GeneID 258723)	1	84.1	103	inactive
47	Or6c35 (GeneID 258723)	2	40.3	24.2	inactive
48	Or6c35 (GeneID 258723)	3	73.5	98.3	inactive
49	Triobp (GeneID 110253)	1	130	77.5	active
50	Triobp (GeneID 110253)	2	106	66	inactive
51	Triobp (GeneID 110253)	3	99.9	73.1	inactive
52	Crtam (GeneID 54698)	1	51.4	54.2	inactive
53	Crtam (GeneID 54698)	2	114	95.1	inactive
54	Crtam (GeneID 54698)	3	77	66.3	inactive
55	Ap1s1 (GeneID 11769)	1	96.1	126	inactive
56	Ap1s1 (GeneID 11769)	2	95.7	88.2	inactive
57	Krt90 (GeneID 239673)	1	46.6	58	inactive
58	Krt90 (GeneID 239673)	2	81.3	88.7	inactive
59	Krt90 (GeneID 239673)	3	149	33.3	active
60	H3c7 (GeneID 260423)	1	43.3	77.8	inactive
61	H3c7 (GeneID 260423)	2	73.4	91.1	inactive
62	H3c7 (GeneID 260423)	3	39.2	28.8	inactive
63	Zfp94 (GeneID 22756)	1	68.4	69.7	inactive
64	Zfp94 (GeneID 22756)	2	84.7	95.3	inactive
65	Has3 (GeneID 15118)	1	64.7	117	inactive
66	Has3 (GeneID 15118)	2	90.4	125	inactive
67	Has3 (GeneID 15118)	3	47.8	73.1	inactive
68	Znrf2 (GeneID 387524)	1	88.2	80.8	inactive
69	Znrf2 (GeneID 387524)	2	66.4	53.1	inactive
70	Znrf2 (GeneID 387524)	3	126	49.9	active
71	Adora3 (GeneID 11542)	1	55.3	65.9	inactive
72	Adora3 (GeneID 11542)	2	74.4	108	inactive
73	Atf4 (GeneID 11911)	1	73.2	84	inactive
74	Atf4 (GeneID 11911)	2	102	96.7	inactive
75	Fancc (GeneID 14088)	1	56.1	72.6	inactive
76	Fancc (GeneID 14088)	2	52.8	69.9	inactive
77	Fancc (GeneID 14088)	3	57.5	86.5	inactive
78	Hmga1 (GeneID 15361)	1	104	64.6	inactive
79	Hmga1 (GeneID 15361)	2	78.5	93.3	inactive
80	Hmga1 (GeneID 15361)	3	44.4	65.7	inactive
81	Crabp2 (GeneID 12904)	1	86.5	99.4	inactive
82	Crabp2 (GeneID 12904)	2	69.6	57.5	inactive
83	Crabp2 (GeneID 12904)	3	99.9	82.5	inactive
84	Lrif1 (GeneID 321000)	1	104	108	inactive
85	Lrif1 (GeneID 321000)	2	71.6	101	inactive
86	Lrif1 (GeneID 321000)	3	129	147	active
